# From PubChem BioAssay AID743187 (National Center for Advancing Translational Sciences (NCATS), 2013)
# Protein sequences, listed by entry. Tags and fused reporters are not part of them. Lines headed by an entry give the natural chain unless they say otherwise; changes in a name come on top.
# UniProt P51659: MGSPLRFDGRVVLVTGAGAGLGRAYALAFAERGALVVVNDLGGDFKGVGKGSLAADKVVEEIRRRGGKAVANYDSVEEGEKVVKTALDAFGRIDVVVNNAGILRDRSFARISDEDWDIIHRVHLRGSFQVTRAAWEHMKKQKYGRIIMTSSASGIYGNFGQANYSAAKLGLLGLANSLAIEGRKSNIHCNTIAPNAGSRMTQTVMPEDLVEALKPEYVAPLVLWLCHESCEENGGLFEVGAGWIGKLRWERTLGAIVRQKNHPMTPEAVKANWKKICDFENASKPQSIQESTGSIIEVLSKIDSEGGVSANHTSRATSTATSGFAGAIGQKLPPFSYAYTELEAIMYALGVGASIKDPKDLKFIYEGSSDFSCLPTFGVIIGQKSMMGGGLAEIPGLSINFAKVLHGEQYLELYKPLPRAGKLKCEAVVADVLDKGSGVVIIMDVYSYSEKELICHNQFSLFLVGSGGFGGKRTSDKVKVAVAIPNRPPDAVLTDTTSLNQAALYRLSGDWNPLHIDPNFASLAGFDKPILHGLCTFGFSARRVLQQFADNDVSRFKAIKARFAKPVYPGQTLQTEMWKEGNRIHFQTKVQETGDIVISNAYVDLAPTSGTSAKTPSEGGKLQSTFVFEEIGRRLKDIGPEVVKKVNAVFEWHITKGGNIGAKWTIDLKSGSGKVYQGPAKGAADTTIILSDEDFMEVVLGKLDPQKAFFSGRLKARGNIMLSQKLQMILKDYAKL
# Inconclusive results, whose numbers are uncertain, are shown with a selection of clear calls. Where a call stands in place of a potency, no number is given. Where the call is inconclusive, the potency comes from a doubtful curve fit. Activity calls are given as the source filed them. The call rests on the fitted dose curve; in most records, active means well fitted inhibition curve with a large enough effect; inconclusive means small, poorly fitted or top-dose-only effect; inactive means no such curve, though single readings can be large or run the other way.
# Target: Peroxisomal multifunctional enzyme type 2 (Homo sapiens) (UniProt P51659)
# Experiment: Extended Characterization of HPGD Inhibitors: Counterscreen Against HSD17b4
# Details: purified HSD17B4, estradiol/NAD+, NADH fluorescence; series mostly up to 57.1 µM
# Excerpt: The central role of HPGD is to inactivate prostaglandins such as prostaglandin E2 (PGE2) or prostaglandin D2 (PGD2). These prostaglandins are involved in a number of processes, including inflammation, differentiation, and cellular signaling, which makes HPGD an important target for pharmacological intervention. The […] enzyme 17b-hydroxysteroid dehydrogenase […] (HSD17b4 catalyzes the NAD+-dependent oxidation of a variety of substrates including acyl-CoAs, androgens and neurosteroids, as well as bile acids. HSD17b4 activity was screened by utilizing an electron donor (estradiol) and NAD+ as an electron acceptor/cofactor. An increase in the fluorescence intensity due to conversion of NAD+ to NADH was used to measure the enzyme activity.. NIH Chemical Genomics Center [NCGC] NIH Molecular Libraries Probe Centers Network [MLPCN] MLPCN Grant: MH084681 Assay Submitter (PI): Structural Genomics Consortium
# 3 uL of enzyme (final concentration 100 nM) or buffer were dispensed into a 1,536-well solid-bottom black plate (Greiner Bio One, Monroe, NC) followed by pin-tool transfer (23 nL) of compound (final concentration range 324 pM to 57.2 uM) and control (CID-24867619, final concentration range 5.23 nM to 11.4 uM). Samples were incubated (RT, protected from light) for 15 minutes followed by a 1 uL substrate addition of NAD+ and Estradiol (final concentrations of 1 mM and 50 uM, respectively, in 15% DMSO). Plates were centrifuged at 1,000 rpm for 15 seconds, then read immediately on a ViewLux High-throughput CCD imager (Perkin-Elmer) equipped with standard UV fluorescence optics (340 nm excitation, 450 nm emission), incubated for 1 hour (RT, protected from light) followed by a second read. Data were normalized ([…]) against no-enzyme (positive) and enzyme-containing (neutral) wells.
row,Structure (SMILES),Potency
1,Cc1ccnc(NC(=S)N2CCN(c3cccc(C(F)(F)F)c3)CC2)c1,inactive
2,CC(Cc1ccccc1)C(=O)Nc1ccc(Cl)cc1C(=O)O (stereo unspecified),active: 24.1 µM
3,Cc1cc(C)nc(NC(=S)N2CCN(c3cc(C(F)(F)F)cc(C(F)(F)F)c3)CC2)c1,inactive
4,S=C(Nc1cc(Cl)ccn1)N1CCN(c2cccc(Cl)c2Cl)CC1,inactive
5,Cc1cc(C)nc(NC(=S)N2CCN(c3ccc(N4CCCC4)nn3)CC2)c1,active: 27.1 µM
6,CN(C)c1ccc2nc(NC(=S)N3CCN(c4cccc(C(F)(F)F)c4)CC3)sc2c1,"inconclusive: 17.1 µM [inhibitor, partial curve]"
